# Assay results as given in PubChem BioAssay AID540276 (National Center for Advancing Translational Sciences (NCATS), 2011).
# Among all 300,000 compounds or so, about 5,400 (1.8%) were called active. The inconclusive results got no clear call from the source; some entries with a clear call stand among them for comparison. Calls come from the whole dose curve; tested in HEK293 cells. Potencies of inconclusive entries are doubtful fits and often do not repeat.
# Test: qHTS for inhibitors of binding or entry into cells for Marburg Virus
# Settings: Marburg virus pseudotyped entry inhibition, cell reporter; activity change, negative = inhibition: at 37.8 µM (top of the series) unless noted
# % is set by controls: 0 for no effect and ±100 for the full control effect; potency is the fitted concentration of half-maximal effect.
Compound,"activity change, negative = inhibition",Potency
CCN(CC(=O)N1CCCC1)S(=O)(=O)c1ccc(OC)cc1,inactive: -20%,
CC/C(=N\N1CCCCC1)c1c(O)[nH]c(=O)[nH]c1=O,,"inconclusive: 1.26 µM [activator, single point]"
CCCN1CCN(CCNC(=O)Nc2ccc(OC)cc2OC)CC1,inactive: -0.36% [at 46.1 µM],
Cc1cc(C)cc(N2C(=O)C=CC2=O)c1,,"inconclusive: 22.4 µM [inhibitor, single point]"
CCCN(CCC)CCNC(=O)C1CCN(c2nc3ccc(CC)cc3s2)CC1,,"inconclusive: 35.5 µM [inhibitor, single point]"
CC(C)Oc1ccc(C(=O)NC(=S)N2CCOCC2)cc1,inactive: 3.45%,
CCn1ccnc1CN(C)Cc1c(C(=O)N2C[C@@H](C)O[C@@H](C)C2)nc2ccc(Cl)cn12,inactive: 0.772%,
O=C(CSc1nc2c(c(=O)[nH]1)CN(Cc1ccc3c(c1)OCO3)CC2)Nc1ccc(F)c(F)c1,inactive: -15.9% [at 46.1 µM],
OCCC1CN(Cc2cc3c(cc2Cl)OCO3)CCN1C1CCCCC1 (configuration not stated),,"inconclusive: 31.6 µM [inhibitor, single point]"
Cc1nn(C)c(Cl)c1C(=O)NCC(=O)Nc1ccc(C(C)C)cc1,inactive: -14.1% [at 46.1 µM],
CCOC(=O)c1cnc2ccc(Cl)cc2c1Nc1ccc(N2CCOCC2)cc1,inactive: -2.58% [at 46.1 µM],
Cc1nc(Cl)sc1C(=O)Nc1ccc(Cl)cc1,inactive: 5.77%,
CC(C)(C)c1nc(CN2CCOCC2)ccc1O,inactive: -5.56%,
COC(=O)c1ccccc1-n1cc2c(c1-c1cccc(C)c1)c(=O)n(C)c(=O)n2C,inactive: -3.01% [at 46.1 µM],
COc1ccccc1CNC(=O)c1oc2ccc(S(=O)(=O)N3CCCC3)cc2c1C,,"inconclusive: 3.55 µM [inhibitor, partial curve, poor fit]"
Clc1cccc(OCCN2CCN(CCOc3cccc(Cl)c3)CC2)c1,,"inconclusive: 12.6 µM [inhibitor, single point]"
CC(C)C1CCCCC1NC(=O)CN1C(=O)C2=C(CCCC2)C1=O (configuration not stated),inactive: -0.855% [at 46.1 µM],
O=C(NC1CCCC1)C(c1ccccn1)N(C(=O)c1csnn1)c1ccccc1Cl (configuration not stated),inactive: -1.59% [at 46.1 µM],
Cc1ccc(C)c(NC(=O)Nc2cccc(-c3cn4cccnc4n3)c2)c1,,"inconclusive: 35.5 µM [inhibitor, single point]"
S=C(NC1CCCC1)N1CCOCC1,,"inconclusive: 1.78 µM [inhibitor, partial curve, poor fit]"
CCc1ccc(NC(=O)Cn2cnc3sc(C)c(S(=O)(=O)N4CCN(c5ccccc5OC)CC4)c3c2=O)cc1,,"inconclusive: 1 µM [inhibitor, full curve, poor fit]"
O=C(C=NNc1ccccc1)c1ccccc1,,"inconclusive: 35.5 µM [inhibitor, single point]"
CNC(=O)c1c(NC(NC(=O)c2ccco2)C(=O)c2ccc(Cl)cc2)sc2c1CCCC2 (configuration not stated),,"inconclusive: 18.3 µM [inhibitor, partial curve, poor fit]"
O=C(CCc1nnc2ccc(NCc3ccccc3)nn12)NC1CCCCC1,inactive: -0.876% [at 46.1 µM],

Compound,"activity change, negative = inhibition",Potency
O=C1NC(=O)C(=Cc2ccco2)S1,inactive: 7.16% [at 46.1 µM],
Cc1ccccc1CN(c1ccc(C(=O)NCCC2=CCCCC2)cc1)S(C)(=O)=O,,"inconclusive: 29.1 µM [inhibitor, single point]"
O=C(Nc1nc(-c2ccccc2)cs1)Nc1ccc(F)cc1F,inactive: -26.9%,
O=[N+]([O-])c1cc(CN2CCN(c3ccccc3)CC2)c(O)c2ncccc12,,"inconclusive: 5.62 µM [inhibitor, full curve, poor fit]"
Cc1ccc(Nc2nc3nonc3[nH]c2=O)cc1Cl,,"inconclusive: 25.1 µM [inhibitor, single point]"
CCOc1ccc(OCCC(=O)OCC(=O)c2c(N)n(C)c(=O)n(C)c2=O)cc1,,"inconclusive: 0.112 µM [activator, full curve, poor fit]"
O=C(NCCN1CCOCC1)c1cc([N+](=O)[O-])cc([N+](=O)[O-])c1,,"inconclusive: 6.31 µM [inhibitor, single point]"
O=S(=O)(c1ccc(F)cc1)N1CCN(c2nc(-c3cccnc3)nc3ccccc23)CC1,,"inconclusive: 10 µM [inhibitor, partial curve, poor fit]"
C=C1[C@@H]2CCN3C(=O)N[C@@H](c4ccccc4)[C@@]1(C(=O)OCC)C23 (some centres not stated),,"inconclusive: 0.075 µM [inhibitor, single point]"
CCC(C)NC(=O)CCc1c(C)nc2cc(-c3ccc(OC)cc3OC)nn2c1C (configuration not stated),inactive: -21.1% [at 46.1 µM],
COc1cc2cc(Oc3ccc4ccc(=O)oc4c3)c(=O)oc2cc1O,,inactive
Cc1ccc(C(=O)NC2CC(C)(C)NC(C)(C)C2)cc1S(=O)(=O)N1CCCCC1,,"inconclusive: 22.4 µM [inhibitor, single point]"
CC(=O)c1ccc(S(=O)(=O)Oc2ccc(-c3ccc(C(=O)O)cc3)cc2)cc1,inactive: -7.75% [at 46.1 µM],
CCOC(=O)C(NC(C)=O)(Nc1ccc(S(N)(=O)=O)cc1)C(F)(F)F (configuration not stated),,"inconclusive: 12.6 µM [activator, single point]"
CCCCn1c(NC(=O)C2CCCCC2)nc2ccccc21,,"inconclusive: 8.91 µM [inhibitor, partial curve, poor fit]"
O=C(NCCc1ccccc1)c1ccc(NCC2CCCO2)c([N+](=O)[O-])c1 (configuration not stated),inactive: 11.5% [at 46.1 µM],
CCOc1ccccc1N/C=C(\C#N)c1nc2ccccc2n1C,,"inconclusive: 0.103 µM [inhibitor, single point]"
COc1cccc(C2=NOC(C(=O)NCc3cccs3)C2)c1 (configuration not stated),,"inconclusive: 29.1 µM [inhibitor, single point]"
Cc1ccc(NC(=O)CSc2nc(C)c(C)c(C)n2)c([N+](=O)[O-])c1,,"inconclusive: 0.282 µM [inhibitor, full curve, poor fit]"
Nc1ncc2c(n1)CC(c1ccco1)CC2=O (configuration not stated),,"inconclusive: 6.31 µM [activator, single point]"
C/C(=N\NC(=O)c1ccc(N(C)C)cc1)c1ccc(C)c(C)c1,inactive: 17.5%,
CSc1nc2ccc(NC(=O)c3c(-c4ccccc4)noc3C)cc2s1,,"inconclusive: 31.6 µM [activator, single point]"
CN(C)CCN(C(=O)C1CCN(S(=O)(=O)c2cccs2)CC1)c1nc2ccccc2s1,,"inconclusive: 31.6 µM [activator, single point]"
